# Data taken from the supplement of paper PMC9135407.
# “And” between values parts separate entries of the source, which are not always exact repeats. Equal entries are not always repeated. Structures can show the parent of a compound that is named as a salt. ± gives the standard deviation of the averaged measurements. Some of the results follow. Plates or batches differ in their baseline, so values are only roughly comparable.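 Assay uses culture-activated primary human stellate myofibroblasts; lipid droplet recovery indicates inactivation. Measured: proportion of Hoechst-counted cells over a plate-specific Bodipy cutoff, duplicate wells, DMSO and nortriptyline as per-plate negative and positive controls. A hit scores, control-normalized, above the plate's top-tenth-percentile nortriptyline wells or ranks among its three best wells. Final well concentrations not reported.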
# Tested on: primary human hepatic stellate cells (donor 1)
# Test: percent Bodipy-positive cells; higher = more lipid droplet accumulation
# Settings: 48 h
# [1] = library stock concentration: 10 mM
# [2] = library stock concentration: 1 mM
# [3] = library stock concentration: 400 uM
# [4] = library stock concentration: 2 mM
# [5] = library stock concentration: 3.33 mM
structure (smiles),measurement,setting,value
Brc1ccc([C@H]2CN3CCSC3=N2)cc1 [S(-)-p-Bromotetramisole oxalate],percent Bodipy-positive cells,[1],64.3 ± 6.4%
O=C(CCC/C=C\C[C@@H]1C(/C=C/[C@@H](O)COc2cccc(C(F)(F)F)c2)[C@H](O)C[C@@H]1O)NC(CO)CO (stereo partly specified) [Fluprostenol serinol amide],percent Bodipy-positive cells,[2],18.4 ± 6.6%
C=CC(=O)N1CCC(Oc2cc3c(Nc4ccc(Cl)c(Cl)c4F)ncnc3cc2OC)CC1 [Poziotinib],percent Bodipy-positive cells,library stock concentration: 80 uM,22.2 ± 11%
same,percent Bodipy-positive cells,[3],25.1 ± 1.9%
same,percent Bodipy-positive cells,[4],12.5 ± 2.9%
same,percent Bodipy-positive cells,[1],70.7 ± 1.1%
CCN(CCO)CCCOc1ccc2c(Nc3cc(CC(=O)Nc4cccc(F)c4)[nH]n3)ncnc2c1 [Barasertib (AZD1152-HQPA)],percent Bodipy-positive cells,[5],18.9 ± 4.8%
same,percent Bodipy-positive cells,[1],33.9 ± 9%
CCCCCCCCCCCCCCCC(=O)OC[C@H](COP(=O)([O-])OCC[N+](C)(C)C)OC(=O)CCCCCCCC(=O)O,percent Bodipy-positive cells,[2],9.04 ± 0.41%
CCCCC[C@H](O)/C=C/[C@H]1CCC(=O)[C@@H]1CCCCCCC(=O)O [11-deoxy Prostaglandin E1],percent Bodipy-positive cells,[2],17.2 ± 1.2%
CCCCCCCCCCCCCCCC(=O)NCCO [Palmitylethanolamide],percent Bodipy-positive cells,[2],10.2 ± 3.2%
CCCCCCCCCCCCCCCC(=O)NCCO [Palmitoylethanolamide],percent Bodipy-positive cells,[1],5.44 ± 0.8%
CCCCCCCCCCCCCCCC(=O)NCCO [Palmitoyl Ethanolamide],percent Bodipy-positive cells,[2],11.9 ± 6%
CCCCCCCCCCCCCCCC(=O)NCCO,percent Bodipy-positive cells,[1],27.4 ± 5.6%
Cc1c(Cc2ccc3ccccc3n2)c2cc(F)ccc2n1CC(=O)O,percent Bodipy-positive cells,[5],8.34 ± 0.87%
same,percent Bodipy-positive cells,[1],55.6 ± 47%
C[C@@H](Oc1cc(-n2cnc3ccc(CN4CCN(C)CC4)cc32)sc1C(N)=O)c1ccccc1C(F)(F)F,percent Bodipy-positive cells,[4],78.4 ± 3%
same,percent Bodipy-positive cells,[1],97.33 ± 0.73%
CO[C@@H](C(=O)N1Cc2[nH]nc(NC(=O)c3ccc(N4CCN(C)CC4)cc3)c2C1)c1ccccc1,percent Bodipy-positive cells,[3],19.2 ± 11%
same,percent Bodipy-positive cells,[4],38.2 ± 8.2%
same,percent Bodipy-positive cells,[5],78.3 ± 16%
same,percent Bodipy-positive cells,[1],88.4 ± 0.29%
CN1CCN(C2=Nc3cc(Cl)ccc3Nc3ccccc32)CC1 [Clozapine],percent Bodipy-positive cells,[5],41.2 ± 7.1%
same,percent Bodipy-positive cells,[1],71.9% and 79.5%
same,percent Bodipy-positive cells,library stock concentration: 15.3 mM,88.5 ± 6.2%
NC12CC3CC(CC(C3)C1)C2 [Adamantamine fumarate],percent Bodipy-positive cells,,23 ± 4.6%
NC12CC3CC(CC(C3)C1)C2 [Symmetrel],percent Bodipy-positive cells,[1],52.7 ± 1.5%
NC12CC3CC(CC(C3)C1)C2 [Amantadine hydrochloride],percent Bodipy-positive cells,library stock concentration: 10.7 mM,5.43 ± 0.12%
NC12CC3CC(CC(C3)C1)C2 [Amantadine HCl],percent Bodipy-positive cells,[5],9.3 ± 2.1%
same,percent Bodipy-positive cells,[1],15.442 ± 0.014%
N#C/C(=C\c1ccc(O)c(O)c1)C(=O)c1ccc(O)c(O)c1 [Tyrphostin AG 538],percent Bodipy-positive cells,[1],15.6 ± 2.4%
CCCCCCCCCCCCCCCC(=O)OC[C@H](COP(=O)([O-])OCC[N+](C)(C)C)OC(=O)CCCC(=O)/C=C/C(=O)O,percent Bodipy-positive cells,[2],5.64 ± 0.77%
CO[C@H]1O[C@@H]2O[C@@]3(C)CC[C@H]4[C@H](C)CC[C@@H]([C@H]1C)[C@@]24OO3,percent Bodipy-positive cells,[1],12 ± 0.98%
CO[C@H]1O[C@@H]2O[C@@]3(C)CC[C@H]4[C@H](C)CC[C@@H]([C@H]1C)[C@@]24OO3 [Artemether],percent Bodipy-positive cells,[5],12.4 ± 3.7%
same,percent Bodipy-positive cells,[1],14% and 37.5%
"CCCCC(C)(C)[C@H](O)/C=C/[C@H]1CCC(=O)[C@@H]1C/C=C\CCCC(=O)O [11-deoxy-16,16-dimethyl Prostaglandin E2]",percent Bodipy-positive cells,[2],34.4 ± 5.2%
O=c1c2ccccc2oc2ccccc12 [Xanthone],percent Bodipy-positive cells,[5],12 ± 4.4%
same,percent Bodipy-positive cells,[1],29.2 ± 19%
CC1(C2CCCC2)Cc2cc(OCC(=O)O)c(Cl)c(Cl)c2C1=O (stereo unspecified),percent Bodipy-positive cells,[1],38.8 ± 5.5%
same,percent Bodipy-positive cells,library stock concentration: 14 mM,10.8 ± 2.1%
Clc1ccc(COC(Cn2ccnc2)c2ccc(Cl)cc2Cl)c(Cl)c1 (stereo unspecified) [Miconazole nitrate],percent Bodipy-positive cells,[1],9.06 ± 2.9%
Clc1ccc(COC(Cn2ccnc2)c2ccc(Cl)cc2Cl)c(Cl)c1 (stereo unspecified) [Miconazole Nitrate],percent Bodipy-positive cells,[5],6.87 ± 1.8%
same,percent Bodipy-positive cells,[1],75.1 ± 4.4%
Clc1ccc(COC(Cn2ccnc2)c2ccc(Cl)cc2Cl)c(Cl)c1 (stereo unspecified) [Miconazole],percent Bodipy-positive cells,,46.4 ± 10%
same,percent Bodipy-positive cells,[5],4.37 ± 0.71%
same,percent Bodipy-positive cells,library stock concentration: 4.8 mM,16.1 ± 6.1%
same,percent Bodipy-positive cells,[1],49.1 ± 20%
Clc1ccc(COC(Cn2ccnc2)c2ccc(Cl)cc2Cl)c(Cl)c1 (stereo unspecified),percent Bodipy-positive cells,[1],96.71 ± 0.42%
NCC=CC(=O)O (stereo in doubt) [cis-4-Aminocrotonic acid],percent Bodipy-positive cells,[1],37.5 ± 4.8%
CC[C@@H]1C(=O)N(C)c2cnc(Nc3ccc(C(=O)N[C@H]4CC[C@H](N5CCN(CC6CC6)CC5)CC4)cc3OC)nc2N1C(C)C [Volasertib (BI 6727)],percent Bodipy-positive cells,[5],95.1 ± 1.5%
same,percent Bodipy-positive cells,[1],100%
CC(C)[C@@H](O)CC[C@@H](C)[C@H]1CC[C@H]2[C@@H]3CC=C4C[C@@H](O)CC[C@]4(C)[C@H]3CC[C@]12C [24(S)-hydroxycholesterol],percent Bodipy-positive cells,library stock concentration: 12.4 mM,13.4 ± 0.15%
Cc1cc(=O)n(-c2ccccc2)n1C [Antipyrine],percent Bodipy-positive cells,,21.8 ± 2.5%
same,percent Bodipy-positive cells,[5],15 ± 6.1%
same,percent Bodipy-positive cells,[1],26.8% and 11.3%
same,percent Bodipy-positive cells,library stock concentration: 10.6 mM,3.63 ± 1.6%
CC(=O)[C@H]1CC[C@H]2[C@@H]3CC=C4C[C@@H](OS(=O)(=O)O)CC[C@]4(C)[C@H]3CC[C@]12C [Pregnenolone sulfate sodium],percent Bodipy-positive cells,[1],10.4 ± 1.4%
CCCN(CCc1cccs1)[C@H]1CCc2c(O)cccc2C1 [Rotigotine],percent Bodipy-positive cells,[5],27.4 ± 10%
same,percent Bodipy-positive cells,[1],83.5 ± 5.8%
CCCc1c(OCCCCc2nnn[nH]2)ccc(C(C)=O)c1O,percent Bodipy-positive cells,[2],8.02% and 23.1%
same,percent Bodipy-positive cells,[1],6.4 ± 3%
